Among all 320,000 compounds or so, about 2,100 (0.66%) were called active. This list was built around the results that the source calls inconclusive (neither active nor inactive); the mix of calls is not that of the screen. The call rests on the fitted dose curve; in most records, active means well fitted inhibition curve with a large enough effect in the signal ratio, with a control signal flat (not every such curve was filed as active); inconclusive means small, poorly fitted or top-dose-only effect, or effect the other way, or a change in a side signal; inactive means flat fitted curve, though single readings scatter; the % refers to the signal ratio. Potencies beside an inconclusive call are fits to weak or partial responses and may not hold up.
experiment: qHTS Assay for Lipid Storage Modulators in Drosophila S3 Cells; conditions: BODIPY lipid droplet fluorescence, 18-24 h, cells fed with added oleic acid; lipid storage change, negative = inhibition: at 46.1 µM (top of the series) unless noted
How it was run: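 Laser-scanning cytometry quantifies lipid droplet accumulation (500–530 nm total intensity; droplet/cell object ratio) in oleic acid-fed (400 uM added) Drosophila S3 cells treated with a concentration series. 20 uM Triacsin C defined 100% inhibition.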
On the % scale 0 is the no-effect control and ±100 the full control effect; potency means the concentration at half of the fitted maximal effect.

Lipid storage change, negative = inhibition, inconclusive:
O=C(OCc1nnc(-c2ccccc2)o1)c1cc2ccccc2cc1O 46.2%
CCCSc1n[nH]c(NC(C)=O)n1 -32.5%
Cc1ccc(-n2nnnc2SCC#N)cc1 2.56%
CC(C)c1nc2c(c(=O)c3ccccc3n2C)c(=O)n1-c1ccc(F)cc1 -20%
OCCC1CN(Cc2ccc3cc(Cl)ccc3n2)CCN1Cc1ccsc1 (stereo not drawn) 17.7%
Nc1ccc(OC(=O)Nc2ccc(O)cc2)cc1 -3.66%
CCn1c(SCC(=O)Nc2ccc(F)cc2)nnc1C1CC1 242%
CC(OC(=O)/C=C/c1ccc(Br)cc1)C(=O)N1CCOCC1 (stereo not drawn) 237%
CSc1ncccc1C(=O)NC(C)C1CC2CCC1C2 (stereo not drawn) -44.3%
CCOc1ccc(C(=O)NCC(c2ccco2)N2CCOCC2)cc1 (stereo not drawn) -32.6% [at 0.0737 µM]
COc1ccc(C(=O)/C=C/Nc2c(C)n(C)n(-c3ccccc3)c2=O)c(OC)c1 -12.4%
CC(C(=O)O)n1ncc2ccccc2c1=O (stereo not drawn) -4.78%
COc1cc2[nH]c(=S)n(N(C(C)=O)C(C)=O)c(=O)c2cc1OC 14.4%
O=C(Nc1ccc(F)cc1)C(c1ccccc1)N1CCN(S(=O)(=O)c2ccc3ccccc3c2)CC1 (stereo not drawn) -14%
S=C(Nc1cc(Cl)ccc1Cl)Nn1cnnc1 -1.44%

Arranged by SMILES length (high to low): part of the list above.
Lipid storage change, negative = inhibition, inconclusive:
O=C(Nc1ccc(F)cc1)C(c1ccccc1)N1CCN(S(=O)(=O)c2ccc3ccccc3c2)CC1 (stereo not drawn) -14%
CC(C)c1nc2c(c(=O)c3ccccc3n2C)c(=O)n1-c1ccc(F)cc1 -20%
S=C(Nc1cc(Cl)ccc1Cl)Nn1cnnc1 -1.44%

Next part.

Lipid storage change, negative = inhibition, inactive:
Oc1ccccc1Oc1ncc(Br)c(Cl)n1

Potency, inconclusive:
CNS(=O)(=O)c1ccc(NC(=O)c2ccccn2)cc1 2.31 µM [activator, single point]
Cc1ccc(OCC(=O)N2CCN(c3nnc(-c4ccccc4)c4ccccc34)CC2)cc1 5.8 µM [activator, full curve]
CCC(CO)Oc1cc(NCc2ccccc2Cl)c2ncn(C(C)C)c2c1 (stereo not drawn) 20.6 µM [falling, single point]
Cc1cc(C)c(OCCN2C(=O)NC(C)(C)C2=O)c(Cl)c1 32.6 µM [activator, single point]
O=C(/C=C/N1CCOCC1)c1coc2ccccc12 9.2 µM [falling, partial curve]
CC(=O)c1ccc(N2CCN(C(=O)C3CCCN(S(=O)(=O)c4cnc[nH]4)C3)CC2)cc1 (stereo not drawn) 20.6 µM [falling, single point]
COC(=O)c1ccccc1NC(=O)C1CC(=O)N(c2ccc(C)cc2)C1 (stereo not drawn) 2.91 µM [activator, partial curve]
